Laboratory results from PubChem BioAssay AID248 (DTP/NCI, 2004).
The list shows only some results of the screen, not a fair sample: it is rich in T/C values a quarter to a half above the control, in often repeated tests (any T/C) and in doses without a T/C. Further doses and runs are listed elsewhere. T/C: endpoint of the treated group in % of that of the vehicle group. Some doses have a count of surviving animals in place of a T/C: the source holds a T/C of zero for them, seemingly a mark for toxic or unscored doses. Some doses without a T/C left all or most animals alive at the check, yet need not have been tolerated: the source hardly ever lists a survival T/C far under the control, and the zero likely stands for such cases as well. Counts of survivors are from the toxicity check (mostly the fifth day) where no day follows; animals may have died later. Schedule codes are those of the source, read here as Q, the interval in days (D) or hours (H), X, the number of doses. Some schedule codes hold Z or #, which are not explained here. Where survival is the endpoint, the PubChem record calls one and a half times the control and up active, and a quarter to a half above the control has no call in these data; cut-offs in other NCI protocols can differ. Some T/C values are followed by the survivors on the day toxicity was checked, most often the fifth; without a count, all were alive then.

Test system: L1210 leukemia ip in BDF1 mice, survival T/C
Test: NCI In Vivo Anticancer Drug Screen. Data for tumor model L1210 Leukemia (intraperitoneal) in B6D2F1 (BDF1) mice
Settings: higher T/C = longer survival
[1] = T/C endpoint: mean survival time, dose: 400.0 mg/kg/injection, schedule: Q01DX001 (ip), vehicle: other
[2] = T/C endpoint: mean survival time, dose: 400.0 mg/kg/injection, schedule: Q01DX009 (ip), vehicle: saline
[3] = T/C endpoint: mean survival time, dose: 100.0 mg/kg/injection, schedule: Q01DX001 (ip), vehicle: carboxymethylcellulose (CMC)
[4] = T/C endpoint: mean survival time, dose: 100.0 mg/kg/injection, schedule: Q04DX003 (ip), vehicle: gum acacia
[5] = T/C endpoint: mean survival time, dose: 100.0 mg/kg/injection, schedule: Q01DX009 (ip), vehicle: saline
[6] = T/C endpoint: mean survival time, dose: 200.0 mg/kg/injection, schedule: Q01DX009 (ip), vehicle: saline
[7] = T/C endpoint: mean survival time, dose: 400.0 mg/kg/injection, schedule: Q01DX009 (ip), vehicle: saline with Tween-80

## Cc1cc(C)c(C)[nH]1
T/C endpoint: mean survival time, dose: 25.0 mg/kg/injection, schedule: Q01DX009 (ip), vehicle: water
  survivor count: 1 of 6
T/C endpoint: mean survival time, dose: 100.0 mg/kg/injection, schedule: Q01DX009 (ip), vehicle: water
  survivor count: 2 of 6
T/C endpoint: mean survival time, dose: 200.0 mg/kg/injection, schedule: Q01DX009 (ip), vehicle: water
  survivor count: 0 of 6
T/C endpoint: mean survival time, dose: 400.0 mg/kg/injection, schedule: Q01DX009 (ip), vehicle: water
  survivor count: 0 of 6

## Cc1ccc(N=Nc2c(N)ccc3ccccc23)cc1
[1]
  survivor count: 1 of 3

## CC(c1ccccc1)N1C(=O)CSC1=S (stereo not given)
T/C endpoint: mean survival time, dose: 400.0 mg/kg/injection, schedule: Q04DX002 (ip), vehicle: saline with Tween-80
  survivor count: 3 of 3

## N/C(=N\O)c1ccncc1
[2]
  survivor count: 0 of 6

## CCCC/C(COC)=N\N=C(\CCOC)COC
[3]
  survivor count: 3 of 3

## CCCCCCCCCCCC(C)NCc1ccccc1 (stereo not given)
T/C endpoint: mean survival time, dose: 50.0 mg/kg/injection, schedule: Q04DX003 (ip), vehicle: saline
  survivor count: 1 of 6
T/C endpoint: mean survival time, dose: 55.0 mg/kg/injection, schedule: Q01DX009 (ip), vehicle: acetone
  survivor count: 1 of 6
T/C endpoint: mean survival time, dose: 100.0 mg/kg/injection, schedule: Q04DX003 (ip), vehicle: saline
  survivor count: 0 of 6

## O=c1[nH]c2ccccc2n1C1CCN(CCCS(=O)(=O)c2ccccc2)CC1
[4]
  survivor count: 0 of 6

## CC12CC3CC(C1)CC(NCCO)(C3)C2
T/C endpoint: mean survival time, dose: 100.0 mg/kg/injection, schedule: Q04DX002 (ip), vehicle: Klucel (hydroxypropylcellulose) (HPC)
  survivor count: 0 of 3
T/C endpoint: mean survival time, dose: 200.0 mg/kg/injection, schedule: Q04DX002 (ip), vehicle: Klucel (hydroxypropylcellulose) (HPC)
  survivor count: 0 of 3
T/C endpoint: mean survival time, dose: 400.0 mg/kg/injection, schedule: Q04DX002 (ip), vehicle: Klucel (hydroxypropylcellulose) (HPC)
  survivor count: 0 of 3

## Cc1c2oc3c(C)ccc(C(=O)NC4C(=O)NC(C(C)C)C(=O)N5CC(Cl)CC5C(=O)N(C)CC(=O)N(C)C(C(C)C)C(=O)OC4C)c3nc-2c(C(=O)NC2C(=O)NC(C(C)C)C(=O)N3CC(Cl)CC3C(=O)N(C)CC(=O)N(C)C(C(C)C)C(=O)OC2C)c(N)c1=O (stereo not given)
T/C endpoint: mean survival time, dose: 400.0 micrograms/kg/injection, schedule: Q01DX009 (ip), vehicle: saline + alcohol
  T/C: 130 % of control
T/C endpoint: mean survival time, dose: 1200.0 micrograms/kg/injection, schedule: Q01DX009 (ip), vehicle: saline + alcohol
  T/C: 126 % of control
T/C endpoint: mean survival time, dose: 1200.0 micrograms/kg/injection, schedule: Q04DX003 (ip), vehicle: saline + alcohol
  T/C: 130 % of control
T/C endpoint: mean survival time, dose: 1600.0 micrograms/kg/injection, schedule: Q04DX003 (ip), vehicle: saline + alcohol
  T/C: 132 % of control
T/C endpoint: mean survival time, dose: 2400.0 micrograms/kg/injection, schedule: Q04DX003 (ip), vehicle: saline + alcohol
  T/C: 140 % of control [7 of 8 alive]
T/C endpoint: mean survival time, dose: 3200.0 micrograms/kg/injection, schedule: Q04DX003 (ip), vehicle: saline + alcohol
  T/C: 146 % of control

## CC(C)(C)N=O
T/C endpoint: mean survival time, dose: 400.0 mg/kg/injection, schedule: Q01DX001 (ip), vehicle: Klucel (hydroxypropylcellulose) (HPC)
  survivor count: 0 of 6

## CCCN(CCC)CC(=O)N1CC(=O)Nc2ccccc21
T/C endpoint: mean survival time, dose: 400.0 mg/kg/injection, schedule: Q04DX003 (ip), vehicle: acetone
  survivor count: 6 of 6

## C[N+]1(Cc2ccccc2)C2CCC1C(=O)N(Cc1ccccc1)C2=O (stereo not given)
T/C endpoint: mean survival time, dose: 300.0 mg/kg/injection, schedule: Q01DX001 (ip), vehicle: saline
  survivor count: 0 of 6

## CN(N=O)C(=O)NCCNC(=O)N(C)N=O
T/C endpoint: mean survival time, dose: 25.0 mg/kg/injection, schedule: Q01DX Z (ip), vehicle: carboxymethylcellulose (CMC)
  T/C: 135 % of control
T/C endpoint: mean survival time, dose: 50.0 mg/kg/injection, schedule: Q01DX Z (ip), vehicle: carboxymethylcellulose (CMC)
  T/C: 132 % of control
T/C endpoint: mean survival time, dose: 100.0 mg/kg/injection, schedule: Q01DX Z (ip), vehicle: carboxymethylcellulose (CMC)
  T/C: 125 % of control
T/C endpoint: mean survival time, dose: 200.0 mg/kg/injection, schedule: Q01DX Z (ip), vehicle: carboxymethylcellulose (CMC)
  survivor count: 5 of 6
T/C endpoint: mean survival time, dose: 250.0 mg/kg/injection, schedule: Q01DX Z (ip), vehicle: carboxymethylcellulose (CMC)
  survivor count: 5 of 6
T/C endpoint: mean survival time, dose: 300.0 mg/kg/injection, schedule: Q01DX Z (ip), vehicle: carboxymethylcellulose (CMC)
  survivor count: 4 of 6

## Oc1cc(Cl)c(Cl)cc1Cl.[Cu+2]
T/C endpoint: mean survival time, dose: 50.0 mg/kg/injection, schedule: Q04DX003 (ip), vehicle: gum acacia
  survivor count: 1 of 6
[4]
  survivor count: 0 of 6
T/C endpoint: mean survival time, dose: 200.0 mg/kg/injection, schedule: Q04DX003 (ip), vehicle: gum acacia
  survivor count: 0 of 6
T/C endpoint: mean survival time, dose: 400.0 mg/kg/injection, schedule: Q04DX003 (ip), vehicle: gum acacia
  survivor count: 0 of 6

## NC1=CCNC(=O)N1c1ccccc1
T/C endpoint: mean survival time, dose: 200.0 mg/kg/injection, schedule: Q01DX Z (ip), vehicle: methylcellulose (MC)
  survivor count: 4 of 6

## c1cncc(C2=NCCN2)c1
[5]
  survivor count: 3 of 6
[6]
  survivor count: 0 of 6
[2]
  survivor count: 0 of 6

## CN(Cc1cnc2nc(N)nc(N)c2n1)c1ccc(C(=O)NC(CCC(=O)O)C(=O)O)cc1F (stereo not given)
T/C endpoint: median survival time, dose: 0.31 mg/kg/injection, schedule: Q01DX009 (ip), vehicle: other
  T/C: 144 % of control
T/C endpoint: median survival time, dose: 0.62 mg/kg/injection, schedule: Q01DX009 (ip), vehicle: other
  T/C: 133 % of control
T/C endpoint: median survival time, dose: 5.0 mg/kg/injection, schedule: Q01DX009 (ip), vehicle: other
  T/C: 144 % of control
T/C endpoint: median survival time, dose: 10.0 mg/kg/injection, schedule: Q01DX009 (ip), vehicle: other
  survivor count: 7 of 8

## COc1cccc(/C=C/[N+](=O)[O-])c1OC
[5]
  survivor count: 2 of 6
[6]
  survivor count: 0 of 6
T/C endpoint: mean survival time, dose: 300.0 mg/kg/injection, schedule: Q01DX009 (ip), vehicle: saline
  survivor count: 0 of 6
[1]
  survivor count: 0 of 4
T/C endpoint: mean survival time, dose: 400.0 mg/kg/injection, schedule: Q04DX003 (ip), vehicle: saline
  survivor count: 1 of 6

## O=C(CCN1CC1)NCCCCCCCCNC(=O)CCN1CC1
T/C endpoint: mean survival time, dose: 11.0 mg/kg/injection, schedule: Q01DX009 (ip), vehicle: carboxymethylcellulose (CMC)
  T/C: 141 % of control
T/C endpoint: mean survival time, dose: 14.6 mg/kg/injection, schedule: Q01DX009 (ip), vehicle: carboxymethylcellulose (CMC)
  T/C: 133 % of control
T/C endpoint: mean survival time, dose: 17.0 mg/kg/injection, schedule: Q01DX009 (ip), vehicle: carboxymethylcellulose (CMC)
  T/C: 143 % of control
T/C endpoint: mean survival time, dose: 22.0 mg/kg/injection, schedule: Q01DX009 (ip), vehicle: carboxymethylcellulose (CMC)
  T/C: 134 % of control
T/C endpoint: mean survival time, dose: 40.0 mg/kg/injection, schedule: Q01DX009 (ip), vehicle: carboxymethylcellulose (CMC)
  T/C: 128 % of control
T/C endpoint: mean survival time, dose: 50.0 mg/kg/injection, schedule: Q01DX001 (ip), vehicle: carboxymethylcellulose (CMC)
  T/C: 125 % of control
[3]
  survivor count: 0 of 4
T/C endpoint: mean survival time, dose: 200.0 mg/kg/injection, schedule: Q01DX001 (ip), vehicle: carboxymethylcellulose (CMC)
  survivor count: 0 of 4
T/C endpoint: mean survival time, dose: 400.0 mg/kg/injection, schedule: Q01DX001 (ip), vehicle: carboxymethylcellulose (CMC)
  survivor count: 0 of 4

## CCN(CC)CC(O)CNc1cc(C)nc(/N=C(\N)Nc2ccc(Cl)c(Cl)c2)n1 (stereo not given)
T/C endpoint: mean survival time, dose: 100.0 mg/kg/injection, schedule: Q01DX009 (ip), vehicle: saline with Tween-80
  survivor count: 2 of 6
T/C endpoint: mean survival time, dose: 200.0 mg/kg/injection, schedule: Q01DX009 (ip), vehicle: saline with Tween-80
  survivor count: 0 of 6
[7]
  survivor count: 0 of 6

## CC(=O)Nc1ccc(/C=N/Nc2c([N+](=O)[O-])cc(C(F)(F)F)cc2[N+](=O)[O-])cc1
[7]
  survivor count: 3 of 6
